SMILES strings stand for the structures.

Experimental findings from patent US6284799A, “Cancer treatment” (priority 1996, dated 2001) are described below.

The subject of assay [1] is concanavalin A-stimulated normal lymphocytes. The experiment in a line: proliferation of concanavalin A-stimulated normal lymphocytes. Type of assay: cell-based. Conditions: Lymphocyte; in the absence of cytotoxicity; FIG. 5; read-out: IC50, inhibition of proliferation.
Assay [2] concerns the target ^3 H-DPPE binding (HIC) in rat liver microsomes. Kind of assay: competition for 3H-DPPE binding in liver microsomes. Conditions: FIG. 2, read-out: K1 to compete for ^3 H-DPPE binding.

As for `CNCCC(Oc1ccc(C(F)(F)F)cc1)c1ccccc1` (centres unmarked) [fluoxetine], the IC50 in assay [1] lay within 10 to 20 µM.
In the case of `CN(C)CCC=C1c2ccccc2COc2ccccc21` [doxepin, reference compound], in assay [2], the Ki worked out at 5 µM.
